Test results published in the supplement of paper PMC10849652.
This is one part of the list.

By UniProt entry, the sequences of proteins in these tests, tags left out. Where a name states a change or a piece, a line headed by the entry shows the natural chain unless it says otherwise.
UniProt O43670: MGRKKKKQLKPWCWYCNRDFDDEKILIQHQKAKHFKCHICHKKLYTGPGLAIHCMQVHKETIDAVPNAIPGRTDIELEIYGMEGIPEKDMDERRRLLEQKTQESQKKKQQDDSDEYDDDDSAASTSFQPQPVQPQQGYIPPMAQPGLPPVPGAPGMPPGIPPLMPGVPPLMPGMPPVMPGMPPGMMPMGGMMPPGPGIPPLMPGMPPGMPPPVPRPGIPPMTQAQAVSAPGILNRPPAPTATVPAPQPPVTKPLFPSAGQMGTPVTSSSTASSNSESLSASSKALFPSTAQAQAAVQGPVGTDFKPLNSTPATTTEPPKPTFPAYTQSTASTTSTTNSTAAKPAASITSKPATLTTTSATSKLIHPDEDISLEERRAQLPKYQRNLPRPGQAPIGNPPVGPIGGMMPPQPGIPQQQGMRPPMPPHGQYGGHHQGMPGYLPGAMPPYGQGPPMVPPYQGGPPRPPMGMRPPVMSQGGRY
UniProt Q9BRR0: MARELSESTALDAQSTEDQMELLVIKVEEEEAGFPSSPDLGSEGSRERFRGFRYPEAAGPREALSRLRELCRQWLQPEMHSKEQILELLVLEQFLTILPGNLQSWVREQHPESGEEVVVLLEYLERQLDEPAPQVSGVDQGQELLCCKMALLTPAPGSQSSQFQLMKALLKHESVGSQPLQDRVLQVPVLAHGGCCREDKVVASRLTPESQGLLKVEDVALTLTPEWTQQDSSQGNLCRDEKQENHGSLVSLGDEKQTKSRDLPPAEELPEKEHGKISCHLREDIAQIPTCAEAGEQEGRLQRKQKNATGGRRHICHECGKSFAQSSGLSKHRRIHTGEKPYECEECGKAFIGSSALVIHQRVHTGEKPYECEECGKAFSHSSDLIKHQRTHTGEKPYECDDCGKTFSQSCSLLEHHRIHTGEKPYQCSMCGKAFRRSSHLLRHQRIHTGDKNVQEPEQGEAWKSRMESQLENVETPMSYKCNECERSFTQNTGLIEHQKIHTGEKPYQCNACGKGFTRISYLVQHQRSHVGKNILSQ
UniProt Q5VV52: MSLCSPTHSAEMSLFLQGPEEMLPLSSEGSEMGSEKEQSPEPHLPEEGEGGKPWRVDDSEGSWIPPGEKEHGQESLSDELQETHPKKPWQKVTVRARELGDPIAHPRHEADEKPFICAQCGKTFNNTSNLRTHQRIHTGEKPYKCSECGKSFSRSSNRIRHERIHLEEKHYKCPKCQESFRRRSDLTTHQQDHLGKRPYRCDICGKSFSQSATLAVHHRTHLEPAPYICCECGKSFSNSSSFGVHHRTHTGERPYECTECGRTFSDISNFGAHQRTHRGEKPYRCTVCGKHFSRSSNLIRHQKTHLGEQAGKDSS
UniProt Q8TCN5: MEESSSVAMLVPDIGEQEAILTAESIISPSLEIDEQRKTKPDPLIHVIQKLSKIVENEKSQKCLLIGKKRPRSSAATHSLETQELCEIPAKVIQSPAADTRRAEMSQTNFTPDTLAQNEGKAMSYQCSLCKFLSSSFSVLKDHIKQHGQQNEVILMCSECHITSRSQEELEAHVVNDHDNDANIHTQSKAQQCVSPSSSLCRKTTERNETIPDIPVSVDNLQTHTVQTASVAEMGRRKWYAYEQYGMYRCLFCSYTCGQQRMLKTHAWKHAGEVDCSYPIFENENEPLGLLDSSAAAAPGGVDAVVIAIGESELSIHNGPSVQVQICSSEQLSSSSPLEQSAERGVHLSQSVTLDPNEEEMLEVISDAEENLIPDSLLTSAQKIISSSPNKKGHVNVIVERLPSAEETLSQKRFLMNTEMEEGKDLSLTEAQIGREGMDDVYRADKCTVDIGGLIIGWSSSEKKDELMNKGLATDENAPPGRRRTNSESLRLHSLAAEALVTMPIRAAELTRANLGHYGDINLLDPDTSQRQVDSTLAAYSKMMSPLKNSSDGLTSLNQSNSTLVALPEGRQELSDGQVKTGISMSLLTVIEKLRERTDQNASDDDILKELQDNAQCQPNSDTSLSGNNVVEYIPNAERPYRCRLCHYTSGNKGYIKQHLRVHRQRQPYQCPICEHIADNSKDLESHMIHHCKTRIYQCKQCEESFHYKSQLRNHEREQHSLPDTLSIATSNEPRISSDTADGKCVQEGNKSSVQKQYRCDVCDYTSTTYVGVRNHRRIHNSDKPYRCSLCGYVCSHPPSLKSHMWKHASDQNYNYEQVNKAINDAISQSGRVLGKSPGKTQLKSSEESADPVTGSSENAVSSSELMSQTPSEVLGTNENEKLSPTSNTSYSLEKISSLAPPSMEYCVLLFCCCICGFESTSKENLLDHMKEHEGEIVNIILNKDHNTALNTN
UniProt Q9Y5V0: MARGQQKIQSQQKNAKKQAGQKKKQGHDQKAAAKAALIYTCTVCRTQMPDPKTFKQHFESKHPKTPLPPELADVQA
UniProt O75844: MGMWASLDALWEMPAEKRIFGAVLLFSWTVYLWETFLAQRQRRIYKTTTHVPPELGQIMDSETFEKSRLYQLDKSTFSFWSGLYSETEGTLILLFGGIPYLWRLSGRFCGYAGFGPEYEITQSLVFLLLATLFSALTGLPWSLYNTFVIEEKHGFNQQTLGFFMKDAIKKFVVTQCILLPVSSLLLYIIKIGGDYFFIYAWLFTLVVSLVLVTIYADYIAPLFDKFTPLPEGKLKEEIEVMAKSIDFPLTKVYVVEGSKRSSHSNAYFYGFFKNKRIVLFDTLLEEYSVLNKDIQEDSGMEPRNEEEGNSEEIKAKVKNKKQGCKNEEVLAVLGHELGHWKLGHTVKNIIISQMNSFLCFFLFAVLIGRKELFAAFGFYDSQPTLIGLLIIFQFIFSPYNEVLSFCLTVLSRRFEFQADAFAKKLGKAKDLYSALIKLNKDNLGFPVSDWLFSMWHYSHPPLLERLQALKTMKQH
UniProt O43264: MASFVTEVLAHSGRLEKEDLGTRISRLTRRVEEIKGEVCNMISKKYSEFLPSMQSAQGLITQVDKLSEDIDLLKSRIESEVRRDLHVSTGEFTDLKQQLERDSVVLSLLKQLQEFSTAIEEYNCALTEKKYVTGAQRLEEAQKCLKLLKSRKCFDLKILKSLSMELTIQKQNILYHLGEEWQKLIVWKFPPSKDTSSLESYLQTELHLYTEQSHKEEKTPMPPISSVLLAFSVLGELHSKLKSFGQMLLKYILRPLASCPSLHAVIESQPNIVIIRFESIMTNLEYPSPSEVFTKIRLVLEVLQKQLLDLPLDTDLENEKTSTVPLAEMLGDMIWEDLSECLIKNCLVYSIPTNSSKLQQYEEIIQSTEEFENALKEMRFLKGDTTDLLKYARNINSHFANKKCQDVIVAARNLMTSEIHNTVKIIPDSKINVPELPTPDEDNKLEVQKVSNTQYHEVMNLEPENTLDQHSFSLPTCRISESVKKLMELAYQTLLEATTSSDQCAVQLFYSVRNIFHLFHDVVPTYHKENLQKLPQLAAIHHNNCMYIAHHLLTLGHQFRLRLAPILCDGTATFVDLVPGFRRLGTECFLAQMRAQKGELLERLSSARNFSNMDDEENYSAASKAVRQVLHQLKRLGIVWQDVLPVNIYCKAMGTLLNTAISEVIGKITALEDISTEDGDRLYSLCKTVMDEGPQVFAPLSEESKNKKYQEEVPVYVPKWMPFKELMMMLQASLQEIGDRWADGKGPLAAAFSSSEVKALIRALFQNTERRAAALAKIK
UniProt P52747: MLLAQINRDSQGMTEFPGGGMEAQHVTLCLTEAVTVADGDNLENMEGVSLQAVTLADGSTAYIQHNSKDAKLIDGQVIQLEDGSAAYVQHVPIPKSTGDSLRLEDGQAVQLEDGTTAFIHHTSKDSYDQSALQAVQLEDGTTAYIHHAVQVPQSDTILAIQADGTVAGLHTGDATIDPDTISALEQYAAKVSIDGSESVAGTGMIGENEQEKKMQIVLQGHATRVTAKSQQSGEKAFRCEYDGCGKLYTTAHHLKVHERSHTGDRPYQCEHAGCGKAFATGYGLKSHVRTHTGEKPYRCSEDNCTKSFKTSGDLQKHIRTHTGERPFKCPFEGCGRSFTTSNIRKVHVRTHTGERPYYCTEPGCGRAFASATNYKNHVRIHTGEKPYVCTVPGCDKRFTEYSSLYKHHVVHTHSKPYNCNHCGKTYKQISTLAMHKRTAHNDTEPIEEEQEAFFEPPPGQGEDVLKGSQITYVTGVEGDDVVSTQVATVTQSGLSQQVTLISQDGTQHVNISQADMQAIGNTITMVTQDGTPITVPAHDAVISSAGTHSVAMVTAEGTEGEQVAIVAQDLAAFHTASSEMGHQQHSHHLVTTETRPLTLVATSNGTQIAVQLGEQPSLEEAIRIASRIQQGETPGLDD
UniProt Q16600: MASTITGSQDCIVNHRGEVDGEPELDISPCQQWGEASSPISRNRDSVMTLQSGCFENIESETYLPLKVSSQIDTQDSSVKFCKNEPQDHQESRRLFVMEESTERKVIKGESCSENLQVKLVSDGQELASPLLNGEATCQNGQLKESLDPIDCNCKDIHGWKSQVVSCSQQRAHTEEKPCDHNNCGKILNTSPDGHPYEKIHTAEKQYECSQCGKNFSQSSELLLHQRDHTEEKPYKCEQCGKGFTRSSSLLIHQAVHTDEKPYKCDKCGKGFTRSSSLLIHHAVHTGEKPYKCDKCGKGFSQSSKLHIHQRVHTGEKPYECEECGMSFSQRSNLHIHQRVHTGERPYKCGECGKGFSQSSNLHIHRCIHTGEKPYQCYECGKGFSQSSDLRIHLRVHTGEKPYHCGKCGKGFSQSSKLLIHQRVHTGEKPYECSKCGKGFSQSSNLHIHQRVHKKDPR
UniProt Q8NHG8: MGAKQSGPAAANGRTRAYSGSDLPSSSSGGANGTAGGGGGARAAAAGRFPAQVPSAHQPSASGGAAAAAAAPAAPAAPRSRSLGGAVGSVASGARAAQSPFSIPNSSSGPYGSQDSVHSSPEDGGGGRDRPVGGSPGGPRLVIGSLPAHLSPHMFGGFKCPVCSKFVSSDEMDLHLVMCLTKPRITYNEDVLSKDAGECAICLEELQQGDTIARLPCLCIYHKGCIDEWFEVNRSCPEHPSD
UniProt Q15776: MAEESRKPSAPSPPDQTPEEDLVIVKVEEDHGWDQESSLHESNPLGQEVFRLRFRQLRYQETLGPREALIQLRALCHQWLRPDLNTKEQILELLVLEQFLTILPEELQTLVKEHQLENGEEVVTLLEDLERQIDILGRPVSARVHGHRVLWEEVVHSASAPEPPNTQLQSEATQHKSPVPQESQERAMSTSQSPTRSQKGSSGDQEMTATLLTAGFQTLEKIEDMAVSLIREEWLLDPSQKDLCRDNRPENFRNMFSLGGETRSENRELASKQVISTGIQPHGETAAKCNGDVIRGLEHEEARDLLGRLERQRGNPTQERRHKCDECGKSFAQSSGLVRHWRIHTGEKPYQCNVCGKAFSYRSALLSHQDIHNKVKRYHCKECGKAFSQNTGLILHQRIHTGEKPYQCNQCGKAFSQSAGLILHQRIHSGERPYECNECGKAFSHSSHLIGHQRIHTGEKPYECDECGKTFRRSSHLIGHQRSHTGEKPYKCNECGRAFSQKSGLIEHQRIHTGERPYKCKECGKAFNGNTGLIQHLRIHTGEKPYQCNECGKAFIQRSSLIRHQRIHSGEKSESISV
UniProt Q9ULJ6: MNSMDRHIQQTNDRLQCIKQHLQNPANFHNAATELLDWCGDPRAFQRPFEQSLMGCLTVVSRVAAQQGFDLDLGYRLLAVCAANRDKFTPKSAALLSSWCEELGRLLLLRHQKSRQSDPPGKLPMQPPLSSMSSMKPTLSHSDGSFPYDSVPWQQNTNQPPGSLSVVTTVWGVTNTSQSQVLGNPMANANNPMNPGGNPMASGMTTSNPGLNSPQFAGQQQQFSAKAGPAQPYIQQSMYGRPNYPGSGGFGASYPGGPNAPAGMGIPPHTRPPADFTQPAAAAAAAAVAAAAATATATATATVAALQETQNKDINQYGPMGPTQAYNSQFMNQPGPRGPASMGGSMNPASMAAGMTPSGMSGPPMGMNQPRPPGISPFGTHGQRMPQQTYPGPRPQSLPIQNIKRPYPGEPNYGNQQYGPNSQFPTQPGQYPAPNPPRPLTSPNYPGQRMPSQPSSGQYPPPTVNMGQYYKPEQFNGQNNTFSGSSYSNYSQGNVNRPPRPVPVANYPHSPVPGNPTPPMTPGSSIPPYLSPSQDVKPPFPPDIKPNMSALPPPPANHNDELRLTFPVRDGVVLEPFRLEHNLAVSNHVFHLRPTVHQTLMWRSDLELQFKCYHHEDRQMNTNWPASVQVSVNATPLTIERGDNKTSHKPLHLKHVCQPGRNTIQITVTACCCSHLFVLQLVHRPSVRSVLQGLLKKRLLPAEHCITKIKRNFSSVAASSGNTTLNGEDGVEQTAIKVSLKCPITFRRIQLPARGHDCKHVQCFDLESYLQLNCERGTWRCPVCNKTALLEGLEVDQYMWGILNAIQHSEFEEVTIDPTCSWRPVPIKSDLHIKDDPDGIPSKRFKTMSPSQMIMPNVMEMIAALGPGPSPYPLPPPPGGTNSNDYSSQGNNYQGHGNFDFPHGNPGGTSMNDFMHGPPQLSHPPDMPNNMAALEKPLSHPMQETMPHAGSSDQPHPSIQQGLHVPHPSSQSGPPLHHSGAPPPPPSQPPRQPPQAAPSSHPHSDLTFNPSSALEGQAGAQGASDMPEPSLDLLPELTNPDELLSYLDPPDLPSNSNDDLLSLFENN

Legend:
Experiment in all cases: log2 fold change, soluble protein after heating vs DMSO (PISA); higher = thermal stabilisation; K562 lysate, 10 uM; active = over 0.2 and 3.5 SD of the protein, either way, in both replicates (recomputed)
[1] = compound: C1=CC=C(C=C1)[C@H](COC2=CC3=C(C=C2)NC(=O)N3)NC(=O)C4=CC=CN(C4=O)CC5=CC(=C(C=C5)F)F
Outline: (§1)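 A 30 min treatment with 10 μM compound was applied to crude K562 extract at 1 mg/mL protein in PBS pH 7.4 with 1 mM MgCl2. Heating for 3 min spanned 48°C-58°C, after which aliquots were pooled, adjusted to 0.5% NP-40 at 4°C and spun at 21,000xg for 90 min. TMTpro 16plex LC-MS/MS of the supernatant, with channel sums equalised, gave values recorded as log-two fold change in thermal stability against solvent controls, from duplicates.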

[2] = compound: CC1=C(SC2=C1C(=N[C@H](C3=NN=C(N32)C)CC(=O)N)C4=CC=C(C=C4)Cl)C
Outline: as §1

[3] = compound: CC1=C2C(=CC=C1)N=C(N(C2=O)C3=CC=CC=C3C)CN4C=NC5=C(N=CN=C54)N
Outline: as §1

[4] = compound: Cc1sc2c(c1C)C(c1ccc(Cl)cc1)=N[C@@H](CC(=O)OC(C)(C)C)c1nnc(C)n1-2
Outline: as §1

[5] = compound: c1ccc([C@@H]2C[C@H]2NC2CCNCC2)cc1
Outline: as §1

Measured: log2 fold change

hCG_1984214 (UniProt I3L0E3)
inactive: [1] 0.006 | [2] 0.001 | [3] 0.054 | [4] 0.099 | [5] -0.007

ZKSCAN1 (UniProt P17029)
inactive: [1] 0 | [2] 0.052 | [3] -0.005 | [4] 0.003 | [5] -0.013

ZNF638 (UniProt Q14966)
inactive: [1] 0.045 | [2] 0.012 | [3] 0.054 | [4] 0.031 | [5] 0.069

ZNF207 isoform 4 (UniProt O43670)
inactive: [1] 0.027 | [2] -0.009 | [3] -0.026 | [4] -0.018 | [5] -0.064

ZKSCAN3 (UniProt Q9BRR0)
inactive: [1] -0.103 | [2] -0.12 | [3] 0.089 | [4] -0.043 | [5] 0.025

ZHX1 (UniProt Q9UKY1)
inactive: [1] 0.016 | [2] 0.036 | [3] 0.022 | [4] -0.224 | [5] -0.22

ZWINT (UniProt O95229)
inactive: [1] 0.016 | [2] 0.042 | [3] -0.047 | [4] 0.025 | [5] -0.027

ZYG11B (UniProt Q9C0D3)
inactive: [1] 0.028 | [2] 0.026 | [3] 0.029 | [4] -0.015 | [5] -0.005

ZNF330 (UniProt Q9Y3S2)
inactive: [1] 0.033 | [2] -0.038 | [3] -0.057 | [4] 0.005 | [5] -0.177

ZNF691 (UniProt Q5VV52)
inactive: [1] -0.016 | [2] 0.047 | [3] -0.014 | [4] 0.005 | [5] -0.228

ZWILCH (UniProt Q9H900)
inactive: [1] 0.043 | [2] 0.032 | [3] 0.05 | [4] 0 | [5] -0.005

ZNF627 (UniProt Q7L945)
inactive: [1] 0.026 | [2] -0.029 | [5] 0.06

ZNF507 (UniProt Q8TCN5)
inactive: [1] 0.027 | [2] -0.045 | [3] -0.06 | [4] 0.032 | [5] 0.002

ZNF706 (UniProt Q9Y5V0)
inactive: [1] 0.004 | [2] 0.02 | [3] 0.027 | [4] -0.003 | [5] -0.031

ZNF407 (UniProt Q9C0G0)
inactive: [1] -0.06 | [2] 0.078 | [3] 0.051 | [4] -0.134 | [5] -0.041

ZYG11A (UniProt Q6WRX3)
inactive: [1] -0.075 | [2] -0.13 | [5] -0.012

ZMYM5 (UniProt Q9UJ78)
inactive: [3] 0.037

ZNF771 (UniProt Q7L3S4)
inactive: [1] 0.061 | [2] 0.065 | [5] -0.032

ZNF74 isoform 5 (UniProt Q16587)
inactive: [1] 0.079 | [2] -0.013 | [4] 0.06 | [5] 0.04

ZNF77 (UniProt Q15935)
inactive: [3] -0.178

ZZZ3 (UniProt Q8IYH5)
inactive: [1] -0.129 | [2] -0.016 | [3] 0.057 | [4] 0.035 | [5] -0.049

ZNF346 (UniProt Q9UL40)
active: [4] -0.205
inactive: [1] 0.031 | [2] -0.017 | [5] -0.086

ZKSCAN4 (UniProt Q969J2)
inactive: [3] -0.091

Retrieved one by one from above (two):
ZNF346 (UniProt Q9UL40)
active: [4] -0.205
inactive: [1] 0.031 | [2] -0.017 | [5] -0.086

ZKSCAN4 (UniProt Q969J2)
inactive: [3] -0.091

Remaining list, next part

ZNF708 (UniProt P17019)
inactive: [3] 0.071

ZMPSTE24 (UniProt O75844)
inactive: [1] 0.023 | [2] -0.02 | [3] 0.005 | [4] -0.024 | [5] -0.109

ZW10 (UniProt O43264)
inactive: [1] -0.003 | [2] -0.011 | [3] 0.04 | [4] -0.005 | [5] 0.019

ZNRD2 (UniProt O60232)
inactive: [1] -0.061 | [2] 0.027 | [3] 0.017 | [4] 0.005 | [5] 0.078

ZNF143 (UniProt P52747)
inactive: [1] 0.04 | [2] -0.059 | [3] -0.014 | [4] -0.045 | [5] -0.008

ZNF76 (UniProt P36508)
inactive: [3] 0.054

ZNF511 (UniProt Q8NB15)
inactive: [1] -0.014 | [2] 0.006 | [3] 0.025 | [4] 0.073 | [5] -0.111

ZNF654, A0A1B0GWA0
inactive: [1] 0.044 | [2] -0.023 | [5] -0.006

ZNF239 (UniProt Q16600)
inactive: [1] -0.06 | [2] -0.041 | [3] -0.075 | [5] 0.116

ZNF316 (UniProt A6NFI3)
inactive: [1] -0.011 | [2] -0.012 | [3] -0.004 | [4] 0.11 | [5] -0.049

ZNRF2 (UniProt Q8NHG8)
inactive: [1] 0.138 | [2] -0.442 | [3] -0.008 | [5] -0.201

ZNF444 (UniProt Q8N0Y2)
inactive: [1] -0.153 | [2] 0.092 | [4] -0.048 | [5] -0.073

ZKSCAN8 (UniProt Q15776)
inactive: [3] -0.065 | [4] -0.026

ZMYM4 (UniProt Q5VZL5)
inactive: [1] 0.133 | [2] -0.081 | [3] -0.054 | [4] -0.023 | [5] 0.011

ZNF592 (UniProt Q92610)
inactive: [1] 0.103 | [2] 0.061 | [4] 0.041 | [5] -0.027

ZMIZ1 (UniProt Q9ULJ6)
inactive: [1] -0.005 | [2] 0.023 | [3] 0.058 | [4] 0.038 | [5] -0.079

ZNF692 isoform 5 (UniProt Q9BU19)
inactive: [3] 0.077 | [4] 0.061

ZNF669 (UniProt Q96BR6)
inactive: [1] 0.008 | [2] -0.005 | [4] -0.116 | [5] 0.061

ZNF574 isoform 2 (UniProt Q6ZN55)
inactive: [1] -0.058 | [2] -0.006 | [5] 0

ZNF280B (UniProt Q86YH2)
inactive: [1] -0.055 | [2] 0.053 | [3] 0.145 | [5] 0.059
